Laboratory results as given in article PMC11900805.
These are yes or no findings as the source states them, for the method shown. Binding seen in cells or lysates may run through a third protein. Some binding calls cover weakened binding; strength is not graded here.

Protein sequences, listed by entry. Tags and fused reporters are not part of them.
UniProt O75362: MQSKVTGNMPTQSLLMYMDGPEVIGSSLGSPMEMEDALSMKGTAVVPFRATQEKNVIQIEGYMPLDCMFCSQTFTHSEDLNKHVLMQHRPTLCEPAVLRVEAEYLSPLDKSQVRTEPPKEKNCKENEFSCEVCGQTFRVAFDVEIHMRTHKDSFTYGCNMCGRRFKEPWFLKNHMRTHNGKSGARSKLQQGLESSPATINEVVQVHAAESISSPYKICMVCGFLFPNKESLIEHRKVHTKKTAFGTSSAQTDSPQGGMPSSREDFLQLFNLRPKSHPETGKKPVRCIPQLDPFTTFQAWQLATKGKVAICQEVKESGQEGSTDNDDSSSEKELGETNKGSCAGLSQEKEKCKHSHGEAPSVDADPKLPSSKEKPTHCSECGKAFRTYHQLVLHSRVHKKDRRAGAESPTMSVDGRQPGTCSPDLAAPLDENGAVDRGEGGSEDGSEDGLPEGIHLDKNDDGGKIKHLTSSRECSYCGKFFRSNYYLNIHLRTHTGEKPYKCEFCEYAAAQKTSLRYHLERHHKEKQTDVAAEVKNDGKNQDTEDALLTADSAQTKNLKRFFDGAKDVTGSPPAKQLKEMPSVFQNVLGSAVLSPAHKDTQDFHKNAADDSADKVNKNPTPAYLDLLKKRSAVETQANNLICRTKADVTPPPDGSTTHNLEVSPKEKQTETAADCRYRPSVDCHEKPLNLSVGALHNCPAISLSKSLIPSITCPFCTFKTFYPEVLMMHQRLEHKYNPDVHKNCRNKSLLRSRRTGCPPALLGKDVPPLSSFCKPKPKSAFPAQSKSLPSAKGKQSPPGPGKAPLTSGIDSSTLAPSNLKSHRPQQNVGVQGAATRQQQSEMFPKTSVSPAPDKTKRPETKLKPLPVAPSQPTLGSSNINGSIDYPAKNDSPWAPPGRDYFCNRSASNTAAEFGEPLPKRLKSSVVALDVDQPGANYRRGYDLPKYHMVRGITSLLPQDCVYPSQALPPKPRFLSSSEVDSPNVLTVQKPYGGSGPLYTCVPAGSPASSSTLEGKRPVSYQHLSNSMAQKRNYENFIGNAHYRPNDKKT
UniProt P32519: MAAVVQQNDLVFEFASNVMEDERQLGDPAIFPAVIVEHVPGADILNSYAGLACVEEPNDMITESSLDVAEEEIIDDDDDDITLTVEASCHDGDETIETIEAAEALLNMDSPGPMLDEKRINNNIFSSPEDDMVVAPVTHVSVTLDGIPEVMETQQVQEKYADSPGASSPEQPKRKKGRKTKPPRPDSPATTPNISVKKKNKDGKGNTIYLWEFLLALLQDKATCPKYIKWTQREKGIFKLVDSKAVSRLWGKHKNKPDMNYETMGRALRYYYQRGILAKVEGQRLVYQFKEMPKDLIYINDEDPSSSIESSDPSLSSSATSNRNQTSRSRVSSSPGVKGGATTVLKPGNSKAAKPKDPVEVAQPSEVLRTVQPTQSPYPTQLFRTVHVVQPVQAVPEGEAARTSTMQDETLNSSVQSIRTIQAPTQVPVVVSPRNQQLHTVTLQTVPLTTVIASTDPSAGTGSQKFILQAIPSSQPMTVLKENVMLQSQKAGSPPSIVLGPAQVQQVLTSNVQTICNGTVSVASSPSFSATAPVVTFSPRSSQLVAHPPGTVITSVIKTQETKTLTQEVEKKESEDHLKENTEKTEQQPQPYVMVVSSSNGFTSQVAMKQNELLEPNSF
UniProt Q14814: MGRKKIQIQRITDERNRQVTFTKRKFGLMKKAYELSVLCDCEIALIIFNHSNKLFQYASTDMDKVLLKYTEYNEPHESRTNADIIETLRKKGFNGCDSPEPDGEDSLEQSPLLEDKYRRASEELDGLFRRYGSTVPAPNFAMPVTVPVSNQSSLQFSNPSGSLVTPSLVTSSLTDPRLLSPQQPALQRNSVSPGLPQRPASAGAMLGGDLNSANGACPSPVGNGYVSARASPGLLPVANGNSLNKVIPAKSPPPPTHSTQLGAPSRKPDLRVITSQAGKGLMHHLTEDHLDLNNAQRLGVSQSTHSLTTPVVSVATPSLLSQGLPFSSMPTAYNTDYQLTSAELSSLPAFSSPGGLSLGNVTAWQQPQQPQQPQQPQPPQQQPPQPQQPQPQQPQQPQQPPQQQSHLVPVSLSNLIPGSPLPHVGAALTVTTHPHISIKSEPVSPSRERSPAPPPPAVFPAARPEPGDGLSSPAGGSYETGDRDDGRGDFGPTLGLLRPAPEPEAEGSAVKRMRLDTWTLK

Target: ZNF217-FLAG (full-length wild-type ZNF217 fused to FLAG) (human) (UniProt O75362)
Assay: co-IP; MV4-11 cells transduced with ZNF217-FLAG lentivirus, lysed in NP-40 buffer with protease inhibitor; supernatant incubated with protein A/G beads and anti-flag antibody or IgG, washed three times; Western blot

| Substance | binding |
| --- | --- |
| ELF1 (from UniProt P32519 1-619) | binds |
| MEF2D (from UniProt Q14814 1-521) | binds |
